The results in this text go back to article PMC6099276.

Results are given in words; binding and its absence hold for the method and conditions named. In cells and extracts the contact can be indirect. Here binding means that the protein was enriched with, or labelled near, the bait; the list need not be complete. Where a sequence is shown, tags or fusion partners need not be part of it.

The target in experiment [1] is T1, AtVPS30-FLAG (AtVPS30 fused with three FLAG tags) (Arabidopsis thaliana) (UniProt Q9M367).
T1 sequence: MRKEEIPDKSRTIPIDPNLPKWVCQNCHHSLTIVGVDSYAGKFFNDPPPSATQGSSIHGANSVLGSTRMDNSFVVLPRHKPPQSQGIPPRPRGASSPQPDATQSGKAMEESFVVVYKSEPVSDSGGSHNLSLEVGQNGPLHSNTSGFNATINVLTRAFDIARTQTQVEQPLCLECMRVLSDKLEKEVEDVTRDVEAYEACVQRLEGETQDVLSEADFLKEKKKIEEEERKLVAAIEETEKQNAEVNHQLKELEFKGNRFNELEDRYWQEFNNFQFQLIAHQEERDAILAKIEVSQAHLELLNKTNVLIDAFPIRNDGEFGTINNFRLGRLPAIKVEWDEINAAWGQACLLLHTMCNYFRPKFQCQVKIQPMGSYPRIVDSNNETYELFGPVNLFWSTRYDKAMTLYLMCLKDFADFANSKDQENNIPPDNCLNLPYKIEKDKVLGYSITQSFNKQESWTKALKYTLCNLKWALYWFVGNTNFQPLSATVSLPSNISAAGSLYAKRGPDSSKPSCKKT
Kind of experiment: affinity purification with mass spectrometry; Co-IP/MS from about 3 g leaf tissue of 20-d-old 35S-USL1-MYC or 35S-VPS30-FLAG transgenic Arabidopsis; purified proteins separated by SDS-PAGE, whole lane digested with trypsin, LC-MS/MS.

The target of experiment [2] is T2, USL1-MYC (U… AND SMALL LEAVES 1 fused with six MYC tags) (Arabidopsis thaliana) (UniProt Q8S9J3).
T2 sequence: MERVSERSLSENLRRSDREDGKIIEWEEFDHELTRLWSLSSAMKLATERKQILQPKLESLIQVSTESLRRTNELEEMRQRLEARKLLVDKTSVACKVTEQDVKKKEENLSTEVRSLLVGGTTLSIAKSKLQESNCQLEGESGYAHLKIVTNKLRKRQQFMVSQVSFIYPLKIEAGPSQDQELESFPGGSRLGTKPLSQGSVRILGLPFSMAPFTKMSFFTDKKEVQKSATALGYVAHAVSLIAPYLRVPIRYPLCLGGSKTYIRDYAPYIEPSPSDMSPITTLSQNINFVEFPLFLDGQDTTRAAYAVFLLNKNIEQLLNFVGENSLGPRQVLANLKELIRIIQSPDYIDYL
Described as above.

B1: USL1 (U… AND SMALL LEAVES 1) (protein, UniProt Q8S9J3 1-352)
chain: T2 sequence
For B1, the binding entry in experiment [1] is reported as “binds”.

B2: AtVPS15 (protein, UniProt Q9M0E5 1-1494)
chain: MGNKIARTTQVSATEYYLHDLPSSYNLVLKEVLGRGRFLKSIQCKHDEGLVVVKVYFKRGDSIDLREYERRLVKIKDVFLSLEHPHVWPFQFWQETDKAAYLVRQYFYSNLHDRLSTRPFLSLVEKKWLAFQLLLAVKQCHEKDICHGDIKCENVLLTSWNWLYLADFASFKPTYIPYDDPSDFSFFFDTRGQRLCYLAPERFYEHGGETQVAQDAPLKPSMDIFAVGCVIAELFLEGQPLFELAQLLAYRRGQHDPSQHLEKIPDPGIRKMILHMIQLEPEARLSAEDYLQNYVGVVFPNYFSPFLHTLYCCWNPLPSDMRVATCQGIFQEILKKMMENKSGDEIGVDSPVTSNPMNASTVQETFANHKLNSSKDLIRNTVNSKDEIFYSISDALKKNRHPFLKKITMDDLGTLMSLYDSRSDTYGTPFLPVEGNMRCEGMVLIASMLCSCIRNIKLPHLRREAILLLRSCSLYIDDDDRLQRVLPYVVALLSDPTAIVRCAAMETLCDILPLVRDFPPSDAKIFPEYIFPMLSMLPEDTEESVRICYASNIAKLALTAYGFLIHSFQLSDVGVLNELNSQQISTTPASETPSHLQKANGNAQLQQLRKTIAEVVQELVMGPKQTPNVRRALLQDIGELCFFFGQRQSNDFLLPILPAFLNDRDEQLRSVFFEKIVYVCFFVGQRSVEEYLLPYIDQALSDQTEAVIVNALECLSTLCKSSFLRKRALLQMIECVYPLLCYPSQWVRRAVVTFIAASSECLGAVDSYAFIAPVIRSYLSRLPASIASEEGLLSCLKPPVTREVVYRIFEKTRNPEFMAKQRKMWYSSSPQSKDWESVDLFDKDAGELNSVECRAEQKQSVEGKKQIKSASKQPEVQGKYAEKDAKLRIPRNPRPNASNTVELRDPVYPEKLQFSGFMAPYVSGANSFIEPENIPLYSFSMDKRAATNPPVASESSLQMNSLGMGSLSVPWMDSMSKSFNLASSVPVPKLISGSFHVGTNPKQFYRVVHEPESRENDQISSAISKFQDLGVSSSSKSASVTSEDASSPADLVGEPSLSRTSVPDSGWKPRGVLVAHLQEHRSAVNDIATSSDHSFFVSASDDSTVKVWDSRKLEKDISFRSRLTYHLEGSRGMCTTMLRNSTQVVVGASDGVIHMFSIDHISRGLGNVVEKYSGIVDIKKKDVKEGALVSLLNYTADSLSGPMVMYSTQNCGIHLWDTRSDLDAWTLKANPEEGYVSSLVTSPCGNWFVSGSSRGVLTLWDLRFRVPVNSWQYPIICPIEKMCLCFLPPSVSVSTTMKPLIYVAAGCNEVSLWNAEGGSCHQVLRVANYENETDVSEFQWKLPSNKVNPKPNHRQNMSSKYRIEELNEPPPRLPGIRSLLPLPGGDLLTGGTDLKIRRWDYSSPERSYCICGPSLKGVGNDDFYELKTNTGVQFVQETKRRPLATKLTAKAVLAAAATDTAGCHRDSVQSLASVKLNQRLLISSSRDGAIKVWK
In the case of B2, the binding result in experiment [1] and in experiment [2] was “binds” each time.

B3: AtVPS30 (protein, UniProt Q9M367 1-517)
chain: T1 sequence
In the case of B3, in experiment [2], the binding entry is “binds”.
